In all, about 52,000 sequences went through this assay and about 210 (0.4%) were called active.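 Rule for the calls: active = gene whose silencing raises cell survival under the drug, median off-target-corrected z-score across its silencing RNAs 2 or more; inactive = the rest.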 This is one part of the list.

This assay can be described thus: Resistance to Poly (ADP-Ribose) Polymerase inhibitor: Gene Identification via Genome-wide siRNA Screen. The settings on record: mouse BRCA2 R2336H ES cells, olaparib, CellTiter-Glo viability; hits give high values. The source says: The role of Poly (ADP-Ribose) Polymerase (PARP) proteins in DNA repair has been elegantly utilized for the synthetic lethality-based treatment of BRCA-deficient tumors by PARP inhibitors. PARP inhibitors are now being used for treatment of BRCA-deficient breast and ovarian cancers. […] While several mechanisms of drug resistance have been identified, majority of these tumors develop drug resistance due to unknown causes. To identified novel regulators of chemo-resistance in BRCA2-mutated cells, we performed a genome wide siRNA library screen. We have found ES cells expressing a hypomorphic allele of BRCA2 to be hypersensitive to PAPP inhibitors (such as olaparib). We used ES cells expressing a mutant allele of BRCA2 that has a single amino acid substitution at position 2336 (arginine to histidine, R2336H). The screen was conducted using an Ambion (Thermo) Silencer Mouse Genome siRNA collection. The library targets 17,575 mouse genes with 3 siRNAs per gene. TET2 (E130014J05Rik) was identified as a top candidate.
Transfections were performed in 384 well plates (Corning 3707). Plates were coated with 0.1% gelatin in H2O overnight at ambient temperature. Gelatin solution was aspirated (BioTek EL406) and siRNAs were printed using a Bravo VPrep liquid handler integrated within a BioCel automation platform (Agilent). Cell viability was measured using CellTiter Glo (Promega). For transfections, […] of serum free media containing Lipofectamine RNAiMax […] was added to wells containing siRNA (0.8pmol). Lipid and siRNA were allowed to complex for 45 min at ambient temperature before addition of 1000 cells in DMEM, 30% FBS to yield final transfection mixtures containing 20 nM siRNA in DMEM, 15% FBS. PARPi (olaparib, AZD2281) was added 48 h post-transfection (500 nM) and viability (CellTiter Glo, Promega) was assayed 72 h later on a PerkinElmer Envision 2104 Multilabel plate reader. Ambion Silencer Select Negative Control #2 was incorporated on all screening plates (16 wells) and the median negative control value on each plate was used for normalization. An siRNA targeting Trp53 was used as a positive control. This control yielded a median protective effect of ~1.9 fold versus negative control throughout the screen. The median absolute deviation (MAD) based z-score was calculated for each siRNA. Genes were then ranked by taking the median value for all siRNAs tested against a given gene. Scores were also adjusted for seed-based off-target effects to help deprioritize likely false positives.
Background: Cellular ATP, detected with luciferase, serves as a proxy for viable cell number.
GGCCUAAUUUCCUCUAAUATT against Padi1: the z-score was inactive: 1.03. For “GGUAAUGAAUGGACAAUGATT against 9130401M01Rik” the value was inactive: -0.0912; for “GGCAGGGUAGCCAAACAAATT against G630055P03Rik”, inactive: 1.86; for GGAGCAUUCACCUGUCUGUTT against Gdf9, inactive: 0.189. On to GCGAUUGAUGAAUUUCGACTT against Atp9b, for which the z-score is inactive: 1.45. For ACCUCCAGUCGCAUAGAAGTT against LOC435366 the value was inactive: 0.506; for GGUGGUGAACUGUUUGACCTT against Pnck, inactive: 0.354. For GGCAGGCAGAAGGCUUUUUTT against Olfr228 the value was inactive: -0.943; for GCAGGUUCAUACGAUCCAGTT against Plekha3, inactive: -1.75; for CCUCCUGUGUUACUUGCGUTT against Bsf3, inactive: -0.472. Take GGAAAGCAUGCAGUUCAUATT against Cyp4f13: the z-score was inactive: 0.0612.

Take “GGUUGAUGAAAUUAGAGAGTT against A930014I12Rik”: the z-score was inactive: 0.564. With GGAAGUGAAGACCUUCUUCTT against Siat4c the figure was inactive: 0.327; with GGGAAUUGCUUUUAAAUGATT against Cnot6l, inactive: 0.636; with GUUAUCAUCACCAUGUUGGTT against Atp6v0e, inactive: 0.866. With “GGAGGUCCCUUCUUCAGCUTT against D12Ertd748e” the figure was inactive: -0.693; with GGUUGCUCACUCAUUUAACTT against Pa2g4, inactive: 0.914.

Take GGCUGUGUUUUUGAACCUUTT against Chrna3: the z-score is inactive: 2.5. With GCCGUGGUGUGGAUUUUUGTT against Cenpa the figure was inactive: -0.38; with “GGCCUCAUGCAGGAACAUUTT against 2610028L19Rik”, inactive: -1.88; with “GGAUAUGUUGGAGAAGGACTT against 2410018C20Rik”, inactive: -1.57. With GCUCCUGAGAGCUAUAGUUTT against Ddx39 the figure was inactive: -1.37.

Take GCUGGAUGUGAAAAGAGCGTT against Fts: the z-score was inactive: -1.16. On to CCGUGACGAGCUUGUGGUUTT against Ap3b2, for which the z-score is inactive: -0.766. Consider GGACAGUUCAAGAUGUUCCTT against Mthfr, for which the z-score is inactive: -0.0614.

For the sequence CCAAGAAAGCAGGAUUAAGTT against Noxo1, the z-score is inactive: 2.11. Regarding GGUAUUGUUUGGUGACAAATT against Lipl2, the z-score is inactive: -0.0931.

With CGAAAGAAGGUGAGGGCUCTT against Ppp1r9a, the z-score was inactive: -0.95.

As to GGCUACCUACAGCACCAACTT against Mbc2, the z-score was inactive: -0.798. Regarding GGAAUAUAAUGGUUACACATT against Trf, the z-score was inactive: -0.824.

GGCAUGUCAGUGAAAUUUUTT against V1rd22: the z-score is inactive: 0.403.

Take CCUGGGACCUAUAACUCCATT against MGC58608: the z-score was inactive: -0.0145. With GGAAGAAAAAAACUUCGUUTT against Gabrg3 the figure was inactive: -0.526; with GGCGCACAAUCAAGAUCUUTT against Col4a4, inactive: -0.0689; with GCUCAUUCAACCAAUAUGCTT against Tmprss7, inactive: 0.866. Consider CCUGUCUGGACUUGUCUAATT against Ica1, for which the z-score is inactive: -1.14.

GCACCAAUGGAACAGUGAUTT against Chfr: the z-score was inactive: -2.36. For CCCAUAUCCUAGCUCUCUUTT against Olfr1230 the value was inactive: 0.00557; for CGCAGCUUCCACAUUAGUGTT against Rad23a, inactive: -0.345. For CGACCUACAUCAUUAUGAATT against Chrm3 the value was inactive: -0.349. For GGCUUCAAGGAGACUGCUUTT against Wnt9a the value was inactive: -0.731; for GGGUCCAGUAUCCAUCAAATT against Sf3a1, inactive: -2.8.

For GGCAAACAUGUGUUCCCUGTT against Prap1, the z-score is inactive: 0.129. Consider GGAACAAUUUGAUCCAGCATT against Mbnl2, for which the z-score was inactive: -0.616.

Consider GCUAGGCUUAUGAUCUUUUTT against Pfkp, for which the z-score was inactive: 0.292. Take “CCCUGACUACCUCUACCAUTT against 9830134C10Rik”: the z-score was inactive: 0.947.

For “GCUUUCAAAUGAAUCUGGATT against D630023F18Rik”, the z-score is inactive: 0.299.

In the case of GGACACUUGUCUUCACUUGTT against Fancc, the z-score is inactive: -0.534.

For the sequence “GGAGCCUCCAAGUUGUAAGTT against 1810023F06Rik”, the z-score was inactive: -0.539.

As to “GGAAAAAGAGGAUGAGUGCTT against 9230109N16”, the z-score is inactive: 0.823. Regarding CCCUCAGCUACAUUCUCCUTT against Olfr1313, the z-score is inactive: 0.106. For GGAUACAAUACACGGACGATT against Syt14 the value was inactive: -0.943.

In the case of GGACAUUCCUGAACAUAAUTT against Pcdha3, the z-score was inactive: 0.466.

Turning to CCCUGAAGUUUAUGCAACATT against Ttyh2, the z-score is inactive: -0.188. With GCCUAAUCAUUCCCAGCAUTT against Oog2 the figure was inactive: -0.349. For GGUGAGAGGAAGGAAGAGATT against Pcsk7 the value was inactive: -2.23. For “GCUGAUCCAACUGGAAUCUTT against D030051D21” the value was inactive: 2.25; for GGAGGUAAAUGAAAAAUCUTT against Nol5a, inactive: -0.00217; for “GGAUAUGCACUGUUUUCAATT against 2310041H06Rik”, inactive: -0.288. “GGACUUUUAUCACGAAGAGTT against E230016K23Rik”: the z-score is inactive: -1.19. In the case of “GCACAACUUAUGACUGAAATT against 2610318K02Rik”, the z-score was inactive: -1.21. With “CCAACAGUACCUCAUUGCUTT against 5730536A07Rik” the figure was inactive: -2.42; with CACUUAUGACCACGCUGAUTT against Olfr809, inactive: 0.511; with CCCACGAAGCUAAGUGGAATT against Gm711, inactive: 1.21.

With “GGGUACUGAGGCACUAAAGTT against 2410129H14Rik”, the z-score is inactive: 2.91. With GGUGUGGUAUCUCUUGUAGTT against Tfdp1 the figure was inactive: -1.72. With “GGCAUAACUGGCUUUGAAGTT against 1200009C21Rik” the figure was inactive: -0.402; with GGAGUACUUUGGAAUAGCATT against Frmd4a, inactive: -0.351; with GCCAGUGAGGCUACUUUCATT against Myo18a, inactive: -0.423. Take “GCACGGCGAAAAAAUCUUCTT against 3110023G01Rik”: the z-score was inactive: 0.469.

In the case of GCAAAAGAGGGAAUAAUUCTT against Ssb, the z-score was inactive: 1.47.

Consider GCAGCUAGCGAUCUUUGGUTT against Thpo, for which the z-score is inactive: 0.00639. For GGAUAUUAGUGUGGAGACUTT against Spnb2 the value was inactive: 0.595; for GGAGGAUGAGAAAGAAGAGTT against Gja8, inactive: 0.759. In the case of CGUGACUCUGCUUUAACUCTT against Col27a1, the z-score was inactive: 0.7. With GUUUCCAUAUCCUUUAAGUTT against Gp49a the figure was inactive: 0.954. For “GGAUACAUUGAGAAAGACUTT against A130072J07” the value was inactive: -0.41. With GCACCUUUGCUUCAGGUAGTT against Ttf2 the figure was inactive: 1.27. With GCAUAUUCUUGCCUUUCUCTT against V1ri10, the z-score is inactive: 0.614.

Regarding “CCCGCUAUUACGUUUUUCUTT against 2810484M10Rik”, the z-score is inactive: -0.417. On to “GCCACUCACUAUGCUACUCTT against 0610039C21Rik”, for which the z-score is inactive: -1.23. Consider GGAUGUGCAUCACUUCAACTT against Sgsh, for which the z-score was inactive: -0.653. For the sequence GGCUAAUAAGAAGUGAAGUTT against Kifc1, the z-score is inactive: -1.66. For GGUGUUAGAUUCUUUGUAATT against Cst6 the value was inactive: 1.13; for CCAGAGCUACCAAAGUCUATT against Ka35, inactive: -1.65.

Regarding GGAGUUGUCUUCAAGAAAUTT against Rassf4, the z-score was inactive: -1.12. With GGAAACCUACCAAGAAACGTT against AI429612, the z-score is inactive: -1.36. As for CACAGAACAUCAUCUCCCATT against Olfr887, the z-score was inactive: -0.702. Turning to AAACUAGGGUCGAUUUCACTT against Hmgn3, the z-score was inactive: -0.0683. Regarding CGUGGAAAUGUCUUAAAUCTT against Folh1, the z-score is inactive: -0.323. With GCAGGAGUAUUGCCAAGGATT against Csf1 the figure was inactive: -1.08; with GGAGAUGAAUCACUAACCATT against Fgf5, inactive: -1.04; with GCCUAAGGGAGACUCUUUGTT against Ngep, inactive: -1.38. As to GGAAUUCUACCGUUAUAUUTT against Trap1, the z-score is inactive: -0.925.

On to GGGAUCAGAGAUUUAGCUATT against V1ri4, for which the z-score was inactive: -0.806. In the case of GGAUAUGCCUCCCUUGAUGTT against Gstt3, the z-score was inactive: -0.88.

Turning to “GGUUUUAUGUAUGAAACUCTT against 9030408N13Rik”, the z-score was inactive: -0.322. Regarding CCGAUUGAUAAAGUCACAUTT against Zfp406, the z-score was inactive: -0.269.

In the case of “GGAACCUAGAGAAAAAGAATT against 0610009A07Rik”, the z-score is inactive: -1.33. In the case of GGUCCAGAAAAUGUUUAUATT against Slc35a4, the z-score was inactive: 0.094. For GGAAGCCACGGUCAUGUGUTT against Trim9 the value was inactive: 0.202.

Take GCCAAAACAUUUCAGAGCCTT against Hemk1: the z-score was inactive: -0.0685. With CCAAGAUUCUCCUGAAUUATT against Plod2, the z-score is inactive: 0.771. Consider GGCUUUGAUGCAACUUCUGTT against Slc18a1, for which the z-score is inactive: 2.38.

(Values after PubChem BioAssay AID1347423 (Functional Genomics Laboratory (NCATS/FGL), 2020).)
